Assay results from paper doi:10.1101/228379.
No constants are given. Whether binding was seen depends on the method and setting. For some assays here: Binding seen in cells or lysates may run through a third protein. Some entries that bind do so weakly or less than the wild type. Where a sequence is shown, tags or fusion partners need not be part of it. Blank lines part the entries; values can stand above or below the binder they belong to.

Key:
[1] = target: T1, FLAG-tagged full-length KDM2B (UniProt Q8NHM5); test: co-IP
T1 sequence: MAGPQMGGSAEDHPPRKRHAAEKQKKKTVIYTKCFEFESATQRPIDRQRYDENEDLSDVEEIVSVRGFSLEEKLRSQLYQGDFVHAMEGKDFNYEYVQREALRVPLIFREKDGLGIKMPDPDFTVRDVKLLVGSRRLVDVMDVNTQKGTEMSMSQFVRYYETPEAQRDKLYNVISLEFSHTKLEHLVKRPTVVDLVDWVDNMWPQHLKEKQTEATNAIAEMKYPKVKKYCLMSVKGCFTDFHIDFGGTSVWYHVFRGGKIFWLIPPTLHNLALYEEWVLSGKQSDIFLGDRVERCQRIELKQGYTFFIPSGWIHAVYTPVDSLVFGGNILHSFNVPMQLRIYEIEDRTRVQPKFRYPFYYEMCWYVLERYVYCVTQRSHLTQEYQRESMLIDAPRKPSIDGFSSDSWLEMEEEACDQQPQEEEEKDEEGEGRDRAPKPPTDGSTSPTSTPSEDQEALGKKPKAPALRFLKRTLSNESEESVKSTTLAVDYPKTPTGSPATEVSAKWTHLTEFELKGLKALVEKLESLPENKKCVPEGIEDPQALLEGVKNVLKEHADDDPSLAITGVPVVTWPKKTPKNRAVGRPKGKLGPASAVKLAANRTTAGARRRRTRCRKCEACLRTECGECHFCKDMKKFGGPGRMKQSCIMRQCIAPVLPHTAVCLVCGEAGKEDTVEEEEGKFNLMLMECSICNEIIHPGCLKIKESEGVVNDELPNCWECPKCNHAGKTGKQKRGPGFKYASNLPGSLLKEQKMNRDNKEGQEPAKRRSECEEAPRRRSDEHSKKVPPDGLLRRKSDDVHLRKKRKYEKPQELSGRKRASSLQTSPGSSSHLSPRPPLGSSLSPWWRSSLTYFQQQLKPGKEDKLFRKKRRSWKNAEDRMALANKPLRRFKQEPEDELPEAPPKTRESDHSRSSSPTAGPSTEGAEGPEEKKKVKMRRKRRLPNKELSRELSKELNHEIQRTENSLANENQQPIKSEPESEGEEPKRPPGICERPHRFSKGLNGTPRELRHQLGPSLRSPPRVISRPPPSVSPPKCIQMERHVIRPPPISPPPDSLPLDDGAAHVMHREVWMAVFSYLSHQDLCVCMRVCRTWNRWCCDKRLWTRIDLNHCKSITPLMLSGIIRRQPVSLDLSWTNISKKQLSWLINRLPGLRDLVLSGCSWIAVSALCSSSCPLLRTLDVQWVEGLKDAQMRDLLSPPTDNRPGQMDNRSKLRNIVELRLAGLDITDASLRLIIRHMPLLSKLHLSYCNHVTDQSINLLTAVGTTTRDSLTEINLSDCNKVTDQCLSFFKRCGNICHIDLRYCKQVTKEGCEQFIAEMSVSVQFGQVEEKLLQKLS

[2] = target: T2, GST-KDM2B_(1–734) (UniProt Q8NHM5); test: ITC
T2 sequence: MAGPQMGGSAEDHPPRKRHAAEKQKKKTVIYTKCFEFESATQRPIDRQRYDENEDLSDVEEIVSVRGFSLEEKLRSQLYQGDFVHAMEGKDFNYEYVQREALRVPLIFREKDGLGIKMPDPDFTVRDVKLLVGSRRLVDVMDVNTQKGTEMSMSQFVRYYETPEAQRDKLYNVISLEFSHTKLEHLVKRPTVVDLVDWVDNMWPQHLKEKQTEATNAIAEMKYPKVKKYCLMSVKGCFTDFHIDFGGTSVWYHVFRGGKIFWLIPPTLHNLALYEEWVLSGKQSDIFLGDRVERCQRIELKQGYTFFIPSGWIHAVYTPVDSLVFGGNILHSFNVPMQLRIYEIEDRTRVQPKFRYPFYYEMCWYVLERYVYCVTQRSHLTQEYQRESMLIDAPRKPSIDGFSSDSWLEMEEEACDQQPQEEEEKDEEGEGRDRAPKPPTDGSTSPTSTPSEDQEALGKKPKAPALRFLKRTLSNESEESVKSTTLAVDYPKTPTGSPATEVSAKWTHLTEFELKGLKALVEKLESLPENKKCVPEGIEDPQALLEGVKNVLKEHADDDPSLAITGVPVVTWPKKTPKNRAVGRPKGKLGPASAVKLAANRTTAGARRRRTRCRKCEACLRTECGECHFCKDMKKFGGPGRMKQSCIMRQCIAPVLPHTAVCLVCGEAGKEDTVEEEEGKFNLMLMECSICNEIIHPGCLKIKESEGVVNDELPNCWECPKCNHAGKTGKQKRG

binding [1]: binds
B1: CBX8, endogenous in 293T cells (protein, UniProt Q9HC52 1-389)
chain: MELSAVGERVFAAEALLKRRIRKGRMEYLVKWKGWSQKYSTWEPEENILDARLLAAFEEREREMELYGPKKRGPKPKTFLLKAQAKAKAKTYEFRSDSARGIRIPYPGRSPQDLASTSRAREGLRNMGLSPPASSTSTSSTCRAEAPRDRDRDRDRDRERDRERERERERERERERERERGTSRVDDKPSSPGDSSKKRGPKPRKELPDPSQRPLGEPSAGLGEYLKGRKLDDTPSGAGKFPAGHSVIQLARRQDSDLVQCGVTSPSSAEATGKLAVDTFPARVIKHRAAFLEAKGQGALDPNGTRVRHGSGPPSSGGGLYRDMGAQGGRPSLIARIPVARILGDPEEESWSPSLTNLEKVVVTDVTSNFLTVTIKESNTDQGFFKEKR

binding [2]: binds
Binder: AQDFKTDLR (trimethyl-lysine K(me3) at H3K79) [Tri-methyl H3K79 peptide AQDFK(me3)TDLR]
